This is an account of results in patent US7772383B2, “Chemical PCR: Compositions for enhancing polynucleotide amplification reactions” (The Trustees of Princeton University, priority 2002, dated 2010).

Common to all, as to assay type: biochemical
Data set [1] has as its system bovine brain glycolipid transfer protein (GTP) cDNA (660 bp). Briefly: PCR amplification of GTP cDNA with diol additives, standard cycling. Here is the method: (§1) Amplification reactions were carried out under the following general conditions. Those skilled in the art will appreciate, however, that to the extent that the conditions (set forth in this application) required for specific experiments described in this example were inconsistent with the following general conditions, limited exceptions to the following general conditions were made The general conditions were as follows: 10 Mm Tris-HCl (Ph 8.8), 50 Mm KCl, 1.5 Mm MgCl2, 0.01% (w/v) gelatin, 0.2 Um primers, 0.06 ng/ul template, 0.2 Mm each Dntp, 0.04 U/ul Taq polymerase. The templates used were bovine brain N-WASP cDNA (1518 bp), a 996 bp segment of human myeloid leukocyte c-jun cDNA, a 511 bp segment of human prostate-specific membrane antigen (PSM) cDNA, and bovine brain glycolipid transfer protein (GTP) cDNA (660 bp). cDNA synthesis was carried out using the FIRST-STRAND® RT-PCR kit from Stratagene on the respective mRNAs purchased from Clontech. All amplification reactions for gene were carried out using a single master batch of cDNA. Taq polymerase and dNTPs were obtained from Stratagene. Primers were obtained from Genosys. Primer melting temperatures (Tms) were calculated using the Genosys oligo calculator program. The sequences of the primers were as follows.
(§2) Polymerase chain reactions for the N-WASP gene were conducted on a ROBOCYCLER® Gradient 40 thermal cycler from Stratagene using 100 ul solutions in 600 ul thin-walled tubes. For expediency, amplification of c-jun, PSM and GTP was carried out in a ROBOCYCLER® Gradient 96 thermal cycler from Stratagene using 50 ul solutions in 200 ul thin-walled tubes. Prior to Taq polymerase addition, a hotstart protocol was carried out that consisted of an initial cycle of 95° C. for 5 minutes (11) to ensure complete first-strand separation, followed by a cycle of 54° C. for 5 minutes. Amplifications were run for 30 cycles. […] Extension was done at 72° C. for periods depending on target length: 2 minutes for N-WASP, 1.5 minutes for c-jun and GTP, and 1 minute for PSM. Annealings were carried out either at fixed concentrations of additives using temperature gradients of 38-56° C. for N-WASP and 44-58° C. for the other targets, or at varying concentrations of additives using fixed temperatures of 41° C. for N-WASP, 50° C. for c-jun and PSM, and 54° C. for GTP.
(§3) Amplification products were analyzed by agarose gel electrophoresis on 0.8% agarose gels in which 20 ul reaction products were loaded with 4 ul loading buffer. Gels were stained with ethidium bromide, visualized on a UV transilluminator (Fisher), and documented by photography. Densitometric quantitation of amplification products was carried out using IMAGE SCANNER® and IMAGE MASTER® software from Amersham Pharmacia. Background correction was done using the software's rolling disc method.
Investigations into the PCR enhancing capabilities of diol cosolvents were carried out using GTP as the primary template. […] The standard protocol for annealing temperature and concentration gradient screening was again followed. […] These cosolvents were thus omitted from further studies. The optimal annealing temperatures for the remaining compounds were: ethylene glycol, 1,2-propanediol, 1,3-propanediol and cis-1,2-cyclopentanediol—58° C.; 1,2-butanediol—54° C.; 1,3-butanediol and 1,4-butanediol—[…]; 2,4-pentanediol, 1,5-pentanediol, 1,6-hexanediol and MPD—56° C.

In data set [2] the test system is 996 bp segment of human myeloid leukocyte c-jun cDNA. Description: PCR amplification of c-jun cDNA with diol additives, standard cycling. Here is the method: as §1, §2, §3
(§4) With PSM, 1,2-propanediol, 1,2-butanediol, 1,3-butanediol, 1,4-butanediol and glycerol were tested; with c-jun, ethylene glycol and 1,3-propanediol were also tested in addition to these compounds. […] The following additive concentrations were tested using these annealing temperatures: 1,2-propanediol—0.5, 0.8, 1.1, 1.4, 1.7 and 2.0M; 1,2-butanediol—0.1, 0.3, 0.5, 0.6, 0.7 and 0.8M; 1,3-butanediol—0.1, 0.3, 0.5, 0.6, 0.9, 1.1, 1.2M; 1,4-butanediol—0.1 to 1.1M in 0.2M intervals; 1,5-pentanediol—0.1-0.6M in 0.1M intervals; glycerol—0.5 to 1.9M in 0.2M intervals, and 2.2M.

In data set [3] the test system is 511 bp segment of human prostate-specific membrane antigen (PSM) cDNA. Description: PCR amplification of PSM cDNA with diol additives, standard cycling. Conditions: annealing temperature gradient studies. As to the method: as §1, §2, §3, §4
The mark [4] stands for this setting: GTP, annealing temperature gradients, 95° C. denaturing temperature.
Where [5] appears, read: c-jun, annealing temperature gradient studies.

Structures are written as SMILES. Where two headings read alike, the source gives them in different places.

On to `OCCCO` [1,3-Propanediol], for which the optimal annealing temperature in data set [1] (setting [4]) was found to be 58 °C; in data set [2] (setting [5]), 50 °C.
For `OCCCCCO` [1,5-Pentanediol], the optimal annealing temperature was 56 °C in data set [1] (setting [4]), 52 °C in data set [3] and 54 °C in data set [2] (setting [5]).
Consider `CC(O)CO` (stereo not shown) [1,2-Propanediol], for which the optimal annealing temperature in data set [1] (setting [4]) is 58 °C; in data set [3], 52 °C; in data set [2] (setting [5]) it was 50 °C.
In the case of `CC(O)CC(C)(C)O` (stereo not shown) [2-Methyl-2,4-Pentanediol], the optimal annealing temperature in data set [1] (setting [4]) came to 56 °C.
For the molecule `OCCO` [Ethylene glycol], the optimal annealing temperature in data set [1] amounted to 58 °C; in data set [2], 52 °C.
With `OCCCCO` [1,4-Butanediol], the optimal annealing temperature in data set [1] came to 60 °C; in data set [3], 54 °C; in data set [2] it was 50 °C.
Take `CC(O)CC(C)O` (stereo not shown) [2,4-Pentanediol]: the optimal annealing temperature in data set [1] (setting [4]) stood at 56 °C.
`OCC(O)CO` [Glycerol, reference compound]: the optimal annealing temperature turned out to be 52 °C in data set [3] and 58 °C in data set [2] (setting [5]).
`CCC(O)CO` (stereo not shown) [1,2-Butanediol]: the optimal annealing temperature is 54 °C in data set [1] (setting [4]), 52 °C in data set [3] and 50 °C in data set [2] (setting [5]).
For the molecule `O[C@@H]1CCC[C@@H]1O` [cis-1,2-Cyclopentanediol], the optimal annealing temperature in data set [1] (setting [4]) amounted to 58 °C.
Turning to `CC(O)CCO` (stereo not shown) [1,3-Butanediol], the optimal annealing temperature in data set [1] (setting [4]) came out at 60 °C; in data set [3] it was 50 °C; in data set [2] (setting [5]), 50 °C.
For the molecule `OCCCCCCO` [1,6-Hexanediol], the optimal annealing temperature in data set [1] (setting [4]) is 56 °C.
